Source: PMC8274477
No constants are given. Whether binding was seen depends on the method and setting. Some entries that bind do so weakly or less than the wild type.

Sequences of proteins named here, by UniProt entry; tags and fusion partners are left off.
UniProt O14964: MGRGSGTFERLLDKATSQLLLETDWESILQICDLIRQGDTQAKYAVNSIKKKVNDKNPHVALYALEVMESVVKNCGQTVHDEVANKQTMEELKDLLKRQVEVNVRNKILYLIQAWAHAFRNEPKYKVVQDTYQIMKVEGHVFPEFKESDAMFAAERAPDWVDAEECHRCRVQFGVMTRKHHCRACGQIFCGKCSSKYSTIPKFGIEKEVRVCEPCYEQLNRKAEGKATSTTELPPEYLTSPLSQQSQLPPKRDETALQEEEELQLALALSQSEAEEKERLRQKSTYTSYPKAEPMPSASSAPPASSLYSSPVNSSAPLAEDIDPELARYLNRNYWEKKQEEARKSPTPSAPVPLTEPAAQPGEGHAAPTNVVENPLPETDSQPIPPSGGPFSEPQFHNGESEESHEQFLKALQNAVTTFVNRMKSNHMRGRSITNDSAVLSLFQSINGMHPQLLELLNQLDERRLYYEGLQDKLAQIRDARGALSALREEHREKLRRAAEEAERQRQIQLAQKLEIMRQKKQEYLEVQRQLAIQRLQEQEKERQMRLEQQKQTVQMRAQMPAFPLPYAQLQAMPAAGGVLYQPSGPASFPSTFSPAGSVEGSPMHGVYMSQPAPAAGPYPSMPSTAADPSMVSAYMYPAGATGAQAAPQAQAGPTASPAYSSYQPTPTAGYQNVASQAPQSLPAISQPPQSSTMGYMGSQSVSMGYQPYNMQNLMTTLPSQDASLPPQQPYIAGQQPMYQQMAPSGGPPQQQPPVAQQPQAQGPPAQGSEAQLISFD
UniProt P35712: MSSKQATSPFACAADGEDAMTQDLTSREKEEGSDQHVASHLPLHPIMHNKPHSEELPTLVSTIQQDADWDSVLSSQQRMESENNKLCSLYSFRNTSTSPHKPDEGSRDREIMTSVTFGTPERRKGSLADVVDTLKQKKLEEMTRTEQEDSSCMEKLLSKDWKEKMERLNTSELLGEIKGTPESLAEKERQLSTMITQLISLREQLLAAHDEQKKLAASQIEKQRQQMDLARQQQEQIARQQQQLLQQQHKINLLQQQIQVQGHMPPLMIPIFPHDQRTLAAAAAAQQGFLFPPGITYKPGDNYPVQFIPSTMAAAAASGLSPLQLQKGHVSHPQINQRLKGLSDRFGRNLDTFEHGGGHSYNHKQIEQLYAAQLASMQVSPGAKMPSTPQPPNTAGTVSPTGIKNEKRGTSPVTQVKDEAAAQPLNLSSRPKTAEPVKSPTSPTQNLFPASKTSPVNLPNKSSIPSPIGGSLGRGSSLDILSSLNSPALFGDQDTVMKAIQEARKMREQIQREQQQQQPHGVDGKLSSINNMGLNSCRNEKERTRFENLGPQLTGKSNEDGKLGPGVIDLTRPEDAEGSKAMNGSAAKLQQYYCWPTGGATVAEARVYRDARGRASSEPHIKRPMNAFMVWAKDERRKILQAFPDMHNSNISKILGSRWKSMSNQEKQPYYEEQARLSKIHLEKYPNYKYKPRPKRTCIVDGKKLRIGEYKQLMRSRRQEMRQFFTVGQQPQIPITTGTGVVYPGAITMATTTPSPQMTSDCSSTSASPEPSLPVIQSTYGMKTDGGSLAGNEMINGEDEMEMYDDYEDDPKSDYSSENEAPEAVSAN
UniProt P47989: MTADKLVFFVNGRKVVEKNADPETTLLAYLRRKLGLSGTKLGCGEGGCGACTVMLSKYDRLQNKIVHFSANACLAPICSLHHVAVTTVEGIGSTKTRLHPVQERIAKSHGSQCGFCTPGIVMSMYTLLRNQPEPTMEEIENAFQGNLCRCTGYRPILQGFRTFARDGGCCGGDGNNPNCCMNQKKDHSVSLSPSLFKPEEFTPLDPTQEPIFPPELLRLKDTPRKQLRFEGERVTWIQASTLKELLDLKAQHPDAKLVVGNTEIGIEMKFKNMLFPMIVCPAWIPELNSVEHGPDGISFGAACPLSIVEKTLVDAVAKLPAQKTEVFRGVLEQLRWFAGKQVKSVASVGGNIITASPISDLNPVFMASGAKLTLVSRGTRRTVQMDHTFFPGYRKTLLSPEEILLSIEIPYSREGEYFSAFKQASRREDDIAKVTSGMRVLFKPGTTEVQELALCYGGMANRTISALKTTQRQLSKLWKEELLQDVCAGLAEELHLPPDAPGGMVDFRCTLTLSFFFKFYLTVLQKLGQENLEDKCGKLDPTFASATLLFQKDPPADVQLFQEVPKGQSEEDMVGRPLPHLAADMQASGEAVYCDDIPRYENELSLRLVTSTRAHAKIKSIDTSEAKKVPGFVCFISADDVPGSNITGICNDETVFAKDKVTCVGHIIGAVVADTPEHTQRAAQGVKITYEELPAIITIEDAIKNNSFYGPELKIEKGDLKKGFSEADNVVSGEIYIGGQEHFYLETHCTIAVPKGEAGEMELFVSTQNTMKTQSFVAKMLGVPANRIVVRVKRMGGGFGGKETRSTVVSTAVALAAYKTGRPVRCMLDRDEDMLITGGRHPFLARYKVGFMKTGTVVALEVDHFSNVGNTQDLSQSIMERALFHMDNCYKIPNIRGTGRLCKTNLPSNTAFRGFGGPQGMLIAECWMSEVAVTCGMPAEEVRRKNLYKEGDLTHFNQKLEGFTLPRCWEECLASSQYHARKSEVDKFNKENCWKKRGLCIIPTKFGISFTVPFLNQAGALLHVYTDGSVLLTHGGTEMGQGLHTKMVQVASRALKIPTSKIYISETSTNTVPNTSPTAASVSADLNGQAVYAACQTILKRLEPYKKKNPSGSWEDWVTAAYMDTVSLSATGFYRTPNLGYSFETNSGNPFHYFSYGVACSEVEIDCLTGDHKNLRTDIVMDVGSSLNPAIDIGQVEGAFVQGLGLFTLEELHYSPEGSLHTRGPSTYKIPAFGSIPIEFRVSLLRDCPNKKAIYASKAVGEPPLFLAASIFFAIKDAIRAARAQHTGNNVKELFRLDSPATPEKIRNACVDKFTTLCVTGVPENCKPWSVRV

Columns and labels:
Assay in all cases: peptide or protein array; HuProt human proteome microarray; 5 ug/5 ml biotin-labelled LUBAC or OTULIN in solution, 1 h at room temperature; Cy5-streptavidin, scanned at 635 nm; BSA as negative control; hits: Z-score >= 3 and I_(Mean_Ratio) >= 1.4; both purified
[1] = target: T1, GCLM (human) (UniProt P48507)
T1 sequence: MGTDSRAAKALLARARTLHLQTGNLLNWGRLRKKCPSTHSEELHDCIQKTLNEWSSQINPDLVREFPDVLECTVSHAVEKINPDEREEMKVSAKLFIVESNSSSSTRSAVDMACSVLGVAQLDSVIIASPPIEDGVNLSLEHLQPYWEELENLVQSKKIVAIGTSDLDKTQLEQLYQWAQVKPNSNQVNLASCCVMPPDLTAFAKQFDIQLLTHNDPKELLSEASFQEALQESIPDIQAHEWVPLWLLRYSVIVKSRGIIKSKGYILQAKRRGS

[2] = target: HGS (human) (UniProt O14964)
[3] = target: SOX6 (human) (UniProt P35712)
[4] = target: XDH (human) (UniProt P47989)

binding [1]: binds
binding [2]: binds
binding [3]: binds
binding [4]: binds
Substance: linear ubiquitin chain assembly complex (LUBAC), purified as HIS-tagged HOIP with the subunit HOIL-1, biotin-labelled (from UniProt Q96EP0 1-1072; Q9BYM8 1-510)
